# Assay results as given in PubChem BioAssay AID1688 (National Center for Advancing Translational Sciences (NCATS), 2009).
# Among all 220,000 compounds or so, about 2,400 (1.1%) were called active. This list was built around the results that the source calls inconclusive (neither active nor inactive); the mix of calls is not that of the screen. Calls follow the shape of the dose curve; as a rule, active = well fitted inhibition curve with a large enough effect; inconclusive = small, poorly fitted or top-dose-only effect, or effect the other way; inactive = no such curve, though single readings can be large or run the other way. Where the call is inconclusive, the potency comes from a doubtful curve fit.
# Assay: qHTS Multiplex Assay to Identify Dual Action Probes in a Cell Model of Huntington: Aggregate Formation (GFP); also: nearly all actives have a fitted effect of over 60% in size
# Settings: PC12 HttQ103-GFP aggregates, Acumen cytometry, 40 h; activity change, negative = inhibition: at 46.1 µM (top of the series) unless noted
# Procedure, shortened: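 Multiplexed with ATP-based cell death, this channel scores GFP aggregates in PC12 cells expressing inducible HTTex1-Q103-GFP. Induction used 100 nM tebufenozide; compounds were tested in concentration series.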
# % is scaled to controls: 0 for no effect and ±100 for the full control effect; potency is read from the fitted curve at half-maximal effect.
SMILES,"activity change, negative = inhibition",Potency
COc1ccccc1NCC(=O)N/N=C/c1cccnc1,inactive: -6.56%,
Nc1c(C(=O)NCc2ccco2)nnn1CC(=O)Nc1ccccc1,,"inconclusive: 6.31 µM [inhibitor, single point]"
C#CCSc1nnc(CSc2nc3ccccc3s2)n1-c1ccccc1,,"inconclusive: 35.5 µM [inhibitor, single point]"
CCCCCNC(=O)c1c[nH]c2ccc(S(=O)(=O)N3CCC4(CC3)OCCO4)cc2c1=O,inactive: 6.35%,
Cc1ccc(O)c(C(=O)c2cc(C(=O)NCCc3ccccc3)c(=O)n(CCc3ccccc3)c2)c1,,"inconclusive: 20 µM [inhibitor, single point]"
COc1cccc2c(=O)n(CC(=O)NC3CCCCC3)ccc12,,"inconclusive: 5.62 µM [activator, single point]"
CC(C)c1nc(SCC(=O)N2CCOCC2)c2c(=O)n(C)c(=O)n(C)c2n1,inactive: 2.41%,
COCCNC(=S)NNC(=O)CSCc1ccc(Cl)cc1Cl,,"inconclusive: 31.6 µM [inhibitor, single point]"
CN(C)/C=C/C(=O)c1ccc(Oc2ccccc2)cc1,inactive: 1.89%,
O=C(N/N=C/c1cccc(C(F)(F)F)c1)c1ccccc1O,,"inconclusive: 15.8 µM [inhibitor, partial curve]"
COc1cccc(-c2ccc(SCc3ccccn3)nn2)c1,inactive: 25.8%,
CCC(=O)N(CCC(Cc1ccccc1)c1ccc2c(c1)OCO2)Cc1ccccc1F (configuration not stated),,"inconclusive: 35.5 µM [inhibitor, single point]"
Cc1ccc(C(=O)C[n+]2cc(-c3ccc(C)cc3)n3c2CCCCC3)cc1,,active: 0.891 µM
COc1cccc(/C=N/NC(N)=S)c1OS(=O)(=O)c1ccccc1,,"inconclusive: 35.5 µM [activator, single point]"
O=C1c2ccccc2C(Nc2ccc(Cl)cn2)N1Cc1ccccc1 (configuration not stated),,"inconclusive: 10 µM [inhibitor, single point]"
Cc1cc(C)n(CCC(=O)N/N=C/c2ccc(O)cc2)n1,inactive: 15.4%,
CCCCOc1ccc(/C=C/C(=O)Nc2ccc([N+](=O)[O-])cc2C)cc1,inactive: 2.77%,
O=C(CCl)N(C/C=C/c1ccccc1)c1ccc2c(c1)OCCO2,,"inconclusive: 35.5 µM [inhibitor, single point]"
CCOC(=O)Cn1nc(C)cc1NC(=O)c1cccnc1,inactive: -1.45%,
CCc1cc2c(SCC(=O)N(CC)c3c(N)n(Cc4ccccc4)c(=O)[nH]c3=O)ncnc2s1,,"inconclusive: 12.6 µM [activator, single point]"
O=C(NCCN1CCOCC1)c1ccc(CS(=O)(=O)Cc2ccccc2F)o1,inactive: -6.21%,
Cc1ccc(-c2noc(C3CCN(C(=O)Nc4ccc(C#N)cc4)CC3)n2)o1,,"inconclusive: 31.6 µM [inhibitor, partial curve]"
O=[N+]([O-])c1cccc(-c2nc3ccc([N+](=O)[O-])cc3[nH]2)c1,,"inconclusive: 35.5 µM [inhibitor, single point]"
O=C(CCCN1C(=O)/C(=C/c2cccs2)SC1=S)NNC(=O)c1ccc(F)cc1,,"inconclusive: 0.891 µM [activator, full curve, poor fit]"

# Structures listed so far that have two or more sulfur atoms, in the order listed:
SMILES,"activity change, negative = inhibition",Potency
C#CCSc1nnc(CSc2nc3ccccc3s2)n1-c1ccccc1,,"inconclusive: 35.5 µM [inhibitor, single point]"
COCCNC(=S)NNC(=O)CSCc1ccc(Cl)cc1Cl,,"inconclusive: 31.6 µM [inhibitor, single point]"
COc1cccc(/C=N/NC(N)=S)c1OS(=O)(=O)c1ccccc1,,"inconclusive: 35.5 µM [activator, single point]"
CCc1cc2c(SCC(=O)N(CC)c3c(N)n(Cc4ccccc4)c(=O)[nH]c3=O)ncnc2s1,,"inconclusive: 12.6 µM [activator, single point]"
O=C(CCCN1C(=O)/C(=C/c2cccs2)SC1=S)NNC(=O)c1ccc(F)cc1,,"inconclusive: 0.891 µM [activator, full curve, poor fit]"

# Some of these compounds in order of length of the SMILES, ascending.
SMILES,"activity change, negative = inhibition",Potency
COc1cccc(-c2ccc(SCc3ccccn3)nn2)c1,inactive: 25.8%,
Cc1cc(C)n(CCC(=O)N/N=C/c2ccc(O)cc2)n1,inactive: 15.4%,
CC(C)c1nc(SCC(=O)N2CCOCC2)c2c(=O)n(C)c(=O)n(C)c2n1,inactive: 2.41%,

# Continuation:

SMILES,"activity change, negative = inhibition",Potency
COCCNC(=O)/C(C#N)=C/c1ccc(O)c([N+](=O)[O-])c1,,"inconclusive: 35.5 µM [activator, partial curve]"
COc1ccc(C)cc1-n1nnnc1SCC(=O)c1ccc2c(c1)OCCO2,inactive: -13.7%,
Cc1oc(-c2cccc(Cl)c2)nc1CN1CCC(C(=O)NCCCN2CCCC2=O)CC1,inactive: 20.8%,
c1ccc(COc2ccc(OCCCCN3CCCC3)cc2)cc1,,"inconclusive: 5.62 µM [inhibitor, single point]"
COc1ccc(CC(=O)NNC(=O)c2cnccn2)cc1,,"inconclusive: 5.62 µM [activator, single point]"
C=CCNc1nc2c(c(=O)[nH]c(=O)n2C)n1CCCCC,,"inconclusive: 0.891 µM [activator, full curve, poor fit]"
O=C(O)C(Cc1cc(I)c(O)c(I)c1)c1ccccc1 (configuration not stated),inactive: 20.2%,
O=C(Nc1ccc(S(=O)(=O)Nc2nccs2)cc1)C1CC(=O)N(c2ccccc2)C1 (configuration not stated),inactive: 14.6%,
CCOC(=O)c1ccccc1NS(=O)(=O)c1ccc(S(=O)(=O)N2CCCC2)cc1,inactive: -25.9%,
CCCc1nn(C)c(C(=O)Nc2ccc3ccccc3c2)c1Cl,,"inconclusive: 35.5 µM [inhibitor, single point]"
CC(C)(C)OC(=O)N[C@@H](Cc1ccccc1)c1nnc(S(=O)(=O)Cc2cccc(F)c2)o1,,"inconclusive: 35.5 µM [inhibitor, single point]"
COC(=O)c1ccc(OCC(=O)Nc2nn(-c3ccccc3)nc2C(N)=O)cc1,,"inconclusive: 1.26 µM [inhibitor, partial curve]"
Cc1ccc(NC(=O)N/C=C/c2ccco2)cc1,inactive: 19.3%,
Cc1cc(C(=O)N/N=C/c2ccc(C)o2)c2ccccc2n1,,"inconclusive: 0.562 µM [inhibitor, full curve, poor fit]"
Cn1nc(-c2ccc(N3CCOCC3)c(NS(=O)(=O)c3ccc(Cl)cc3)c2)c2ccccc2c1=O,inactive: 22.2%,
Cc1ccc(C)c(CN2CCCNC2=O)c1,,"inconclusive: 0.0891 µM [activator, partial curve, poor fit]"
COCCNC(=O)C(C)Oc1ccc(Cl)cc1Cl (configuration not stated),inactive: -5.23%,
CC(NC(=O)c1ccc([N+](=O)[O-])cc1[N+](=O)[O-])c1ccc(-c2ccccc2)cc1 (configuration not stated),inactive: -14.1%,
CC(=O)Oc1ccc(N(C(C)=O)S(=O)(=O)c2cccs2)c2ccccc12,,"inconclusive: 35.5 µM [inhibitor, single point]"
Cc1ccc(NC(=O)C2CCN(S(=O)(=O)c3cccs3)CC2)cc1,,"inconclusive: 35.5 µM [inhibitor, single point]"
O=C(N/N=C/C1CC=CCC1)c1cc(Br)ccc1O (configuration not stated),,"inconclusive: 22.4 µM [inhibitor, single point]"
COc1ccccc1Cn1c(=O)c2ccccc2n2c(Sc3ncnc4sccc34)nnc12,,"inconclusive: 35.5 µM [inhibitor, single point]"
O=C1CC(c2ccccc2Cl)CC(O)=C1C=Nc1ccccc1 (configuration not stated),,"inconclusive: 3.55 µM [activator, full curve, poor fit]"
